Measured values from paper PMC5997449.
These are yes or no findings as the source states them, for the method shown. Binding seen in cells or lysates may run through a third protein. Where a sequence is shown, tags or fusion partners need not be part of it.

Protein sequences, listed by entry. Tags and fused reporters are not part of them. Lines headed by an entry give the natural chain unless they say otherwise; changes in a name come on top.
UniProt A2AGH6: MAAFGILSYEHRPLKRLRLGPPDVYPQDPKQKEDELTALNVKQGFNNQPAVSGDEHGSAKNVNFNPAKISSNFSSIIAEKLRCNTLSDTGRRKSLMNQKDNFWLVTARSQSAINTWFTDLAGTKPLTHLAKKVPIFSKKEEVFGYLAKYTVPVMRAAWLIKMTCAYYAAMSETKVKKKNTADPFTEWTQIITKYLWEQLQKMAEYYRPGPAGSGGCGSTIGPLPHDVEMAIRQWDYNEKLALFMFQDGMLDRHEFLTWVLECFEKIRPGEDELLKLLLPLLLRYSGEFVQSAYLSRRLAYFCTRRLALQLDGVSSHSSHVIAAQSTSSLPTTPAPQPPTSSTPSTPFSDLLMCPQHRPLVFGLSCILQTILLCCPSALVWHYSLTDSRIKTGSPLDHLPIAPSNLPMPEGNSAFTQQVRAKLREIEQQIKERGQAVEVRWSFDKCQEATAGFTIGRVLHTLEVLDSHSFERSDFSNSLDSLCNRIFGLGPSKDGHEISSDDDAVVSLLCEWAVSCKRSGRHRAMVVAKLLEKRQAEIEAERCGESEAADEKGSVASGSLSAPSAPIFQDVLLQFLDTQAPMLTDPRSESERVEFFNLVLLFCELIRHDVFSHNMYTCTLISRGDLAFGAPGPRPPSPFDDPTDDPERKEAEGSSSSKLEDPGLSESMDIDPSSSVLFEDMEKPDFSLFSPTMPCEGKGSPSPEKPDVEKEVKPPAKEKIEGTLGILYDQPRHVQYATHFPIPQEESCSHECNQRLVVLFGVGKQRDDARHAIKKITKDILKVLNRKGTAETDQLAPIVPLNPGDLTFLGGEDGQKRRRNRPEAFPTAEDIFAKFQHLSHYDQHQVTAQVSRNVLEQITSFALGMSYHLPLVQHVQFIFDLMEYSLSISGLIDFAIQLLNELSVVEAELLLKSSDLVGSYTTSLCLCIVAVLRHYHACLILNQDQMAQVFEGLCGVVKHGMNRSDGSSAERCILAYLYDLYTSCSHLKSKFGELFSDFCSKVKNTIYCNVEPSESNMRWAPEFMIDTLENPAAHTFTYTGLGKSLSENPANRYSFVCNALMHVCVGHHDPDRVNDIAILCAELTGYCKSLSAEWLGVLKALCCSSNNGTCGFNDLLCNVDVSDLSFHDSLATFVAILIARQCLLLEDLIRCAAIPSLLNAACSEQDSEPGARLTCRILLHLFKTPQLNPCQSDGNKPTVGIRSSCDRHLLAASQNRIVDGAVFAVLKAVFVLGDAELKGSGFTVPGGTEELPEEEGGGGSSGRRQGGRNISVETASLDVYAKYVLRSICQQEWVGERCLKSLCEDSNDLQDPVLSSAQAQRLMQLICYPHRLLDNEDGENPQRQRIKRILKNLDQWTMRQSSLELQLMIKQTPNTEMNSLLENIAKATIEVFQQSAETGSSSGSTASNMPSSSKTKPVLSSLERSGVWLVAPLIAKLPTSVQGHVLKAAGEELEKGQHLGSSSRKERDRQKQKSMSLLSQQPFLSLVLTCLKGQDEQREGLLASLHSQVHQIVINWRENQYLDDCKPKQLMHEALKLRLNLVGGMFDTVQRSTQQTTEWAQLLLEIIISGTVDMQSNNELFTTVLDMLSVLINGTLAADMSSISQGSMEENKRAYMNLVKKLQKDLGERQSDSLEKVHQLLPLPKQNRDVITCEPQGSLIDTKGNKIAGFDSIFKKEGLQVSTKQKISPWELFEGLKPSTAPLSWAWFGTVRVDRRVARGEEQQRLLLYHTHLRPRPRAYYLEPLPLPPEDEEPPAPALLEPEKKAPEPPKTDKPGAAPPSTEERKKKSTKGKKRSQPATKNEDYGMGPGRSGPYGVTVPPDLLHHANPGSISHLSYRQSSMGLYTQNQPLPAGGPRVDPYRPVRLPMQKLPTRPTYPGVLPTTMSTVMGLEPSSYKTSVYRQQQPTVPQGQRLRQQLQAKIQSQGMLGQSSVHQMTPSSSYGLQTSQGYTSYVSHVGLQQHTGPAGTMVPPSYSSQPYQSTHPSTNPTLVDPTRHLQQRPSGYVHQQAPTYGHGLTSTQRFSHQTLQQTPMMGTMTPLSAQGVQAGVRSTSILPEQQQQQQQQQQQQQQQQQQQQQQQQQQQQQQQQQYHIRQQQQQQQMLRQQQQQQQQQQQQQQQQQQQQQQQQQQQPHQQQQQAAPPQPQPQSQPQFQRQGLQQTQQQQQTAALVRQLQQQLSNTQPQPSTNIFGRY
UniProt Q5DTM8: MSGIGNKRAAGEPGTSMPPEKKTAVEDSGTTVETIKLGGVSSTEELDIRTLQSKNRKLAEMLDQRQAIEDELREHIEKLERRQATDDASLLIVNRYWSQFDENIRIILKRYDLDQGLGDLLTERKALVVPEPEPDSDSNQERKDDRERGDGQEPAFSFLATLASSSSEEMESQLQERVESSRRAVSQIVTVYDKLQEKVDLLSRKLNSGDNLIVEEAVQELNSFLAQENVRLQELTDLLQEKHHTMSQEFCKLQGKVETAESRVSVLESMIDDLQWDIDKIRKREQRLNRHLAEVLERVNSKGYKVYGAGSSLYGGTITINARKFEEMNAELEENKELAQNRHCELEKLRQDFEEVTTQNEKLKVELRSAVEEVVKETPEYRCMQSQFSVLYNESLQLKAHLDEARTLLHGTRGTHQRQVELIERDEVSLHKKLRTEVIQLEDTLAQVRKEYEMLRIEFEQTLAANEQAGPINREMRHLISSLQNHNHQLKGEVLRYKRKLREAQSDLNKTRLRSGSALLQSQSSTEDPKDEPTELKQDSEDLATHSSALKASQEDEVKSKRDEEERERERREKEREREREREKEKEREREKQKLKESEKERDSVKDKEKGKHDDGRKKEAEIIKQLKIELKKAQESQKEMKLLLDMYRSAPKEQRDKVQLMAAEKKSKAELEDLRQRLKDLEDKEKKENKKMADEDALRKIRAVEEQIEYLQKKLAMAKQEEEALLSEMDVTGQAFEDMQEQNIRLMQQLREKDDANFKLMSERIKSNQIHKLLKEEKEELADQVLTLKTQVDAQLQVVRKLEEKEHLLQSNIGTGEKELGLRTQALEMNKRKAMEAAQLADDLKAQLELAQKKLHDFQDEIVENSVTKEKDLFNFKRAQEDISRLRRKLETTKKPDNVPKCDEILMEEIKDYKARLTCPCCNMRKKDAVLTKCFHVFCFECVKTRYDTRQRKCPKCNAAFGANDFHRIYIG

T1: FS2-FBXL19 (epitope-tagged wild-type FBXL19, stable mouse ES cell line) (mouse) (UniProt Q6PB97)
T1 sequence: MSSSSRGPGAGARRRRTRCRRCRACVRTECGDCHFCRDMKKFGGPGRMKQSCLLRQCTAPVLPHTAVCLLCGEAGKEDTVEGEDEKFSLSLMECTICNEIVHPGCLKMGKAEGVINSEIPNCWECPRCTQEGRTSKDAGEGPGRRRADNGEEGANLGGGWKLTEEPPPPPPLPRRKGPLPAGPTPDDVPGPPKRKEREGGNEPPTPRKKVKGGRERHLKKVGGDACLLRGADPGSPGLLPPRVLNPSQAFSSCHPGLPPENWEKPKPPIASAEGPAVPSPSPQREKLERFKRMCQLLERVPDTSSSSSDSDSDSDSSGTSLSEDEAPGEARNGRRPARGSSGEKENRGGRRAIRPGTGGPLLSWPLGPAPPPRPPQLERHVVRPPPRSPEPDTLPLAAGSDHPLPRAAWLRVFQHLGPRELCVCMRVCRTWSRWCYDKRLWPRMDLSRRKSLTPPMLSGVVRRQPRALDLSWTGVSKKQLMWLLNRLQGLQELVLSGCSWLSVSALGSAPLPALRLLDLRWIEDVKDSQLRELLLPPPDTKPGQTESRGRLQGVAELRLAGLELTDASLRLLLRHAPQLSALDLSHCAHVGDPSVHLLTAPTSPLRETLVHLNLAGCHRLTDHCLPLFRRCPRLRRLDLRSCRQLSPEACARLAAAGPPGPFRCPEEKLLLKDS

T2: CDK8 (mouse (endogenous in ES cells)) (UniProt Q8R3L8)
T2 sequence: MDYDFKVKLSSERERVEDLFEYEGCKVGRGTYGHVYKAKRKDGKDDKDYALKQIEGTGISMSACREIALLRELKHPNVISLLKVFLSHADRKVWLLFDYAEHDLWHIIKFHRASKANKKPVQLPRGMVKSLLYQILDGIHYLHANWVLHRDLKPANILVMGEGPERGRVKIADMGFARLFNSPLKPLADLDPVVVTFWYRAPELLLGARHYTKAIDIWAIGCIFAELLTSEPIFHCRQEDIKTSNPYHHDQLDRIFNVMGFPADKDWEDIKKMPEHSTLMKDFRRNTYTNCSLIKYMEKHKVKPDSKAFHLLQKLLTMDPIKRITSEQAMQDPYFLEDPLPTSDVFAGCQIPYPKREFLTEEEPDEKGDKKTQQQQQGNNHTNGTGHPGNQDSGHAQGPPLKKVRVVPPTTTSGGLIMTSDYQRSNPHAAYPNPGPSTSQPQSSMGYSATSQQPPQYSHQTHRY


Legend:
[1] = target: T1, FS2-FBXL19 (epitope-tagged wild-type FBXL19, stable mouse ES cell line) (mouse); test: pull-down; FS2-FBXL19 and empty vector control purifications (StrepTactin resin) from ES cell nuclear extract, benzonase, western blot
[2] = target: MED12 (mouse (endogenous in ES cells)) (UniProt A2AGH6); test: co-IP; endogenous IP of FBXL19, CDK8 and MED12 from 600 ug nuclear extract of T7 knock-in ES cells in BC150 (150 mM KCl), 25U benzonase, protein A agarose, 4 C; control IP anti-HA; western blot
[3] = target: T2, CDK8 (mouse (endogenous in ES cells)); test: as above

| binding [1] | binding [2] | binding [3] | Molecule |
| --- | --- | --- | --- |
| no binding |  |  | RNF20/40 E3 ubiquitin ligase (from UniProt Q5DTM8 1-973; Q3U319 1-1001) (complex) |
|  | no binding | no binding | Endogenous FBXL19 tagged with 3xT7-2xStrepII by knock-in (T7-FBXL19) (protein, UniProt Q6PB97 1-674) MSSSSRGPGAGARRRRTRCRRCRACVRTECGDCHFCRDMKKFGGPGRMKQSCLLRQCTAPVLPHTAVCLLCGEAGKEDTVEGEDEKFSLSLMECTICNEIVHPGCLKMGKAEGVINSEIPNCWECPRCTQEGRTSKDAGEGPGRRRADNGEEGANLGGGWKLTEEPPPPPPLPRRKGPLPAGPTPDDVPGPPKRKEREGGNEPPTPRKKVKGGRERHLKKVGGDACLLRGADPGSPGLLPPRVLNPSQAFSSCHPGLPPENWEKPKPPIASAEGPAVPSPSPQREKLERFKRMCQLLERVPDTSSSSSDSDSDSDSSGTSLSEDEAPGEARNGRRPARGSSGEKENRGGRRAIRPGTGGPLLSWPLGPAPPPRPPQLERHVVRPPPRSPEPDTLPLAAGSDHPLPRAAWLRVFQHLGPRELCVCMRVCRTWSRWCYDKRLWPRMDLSRRKSLTPPMLSGVVRRQPRALDLSWTGVSKKQLMWLLNRLQGLQELVLSGCSWLSVSALGSAPLPALRLLDLRWIEDVKDSQLRELLLPPPDTKPGQTESRGRLQGVAELRLAGLELTDASLRLLLRHAPQLSALDLSHCAHVGDPSVHLLTAPTSPLRETLVHLNLAGCHRLTDHCLPLFRRCPRLRRLDLRSCRQLSPEACARLAAAGPPGPFRCPEEKLLLKDS |
